Experimental data: PubChem BioAssay AID504834 (National Center for Advancing Translational Sciences (NCATS), 2011)
Values joined by “and” are separate entries in the source; they are usually repeats but may differ in a detail not shown here. Identical values can stand only once. Among all 320,000 compounds or so, about 22,000 (6.9%) were called active. This list was built around the results that the source calls inconclusive (neither active nor inactive); the mix of calls is not that of the screen. The call rests on the fitted dose curve; in most records, active means well fitted inhibition curve with a large enough effect; inconclusive means small, poorly fitted or top-dose-only effect, or another doubt; inactive means no such curve, though single readings can be large or run the other way. A potency beside an inconclusive call is a rough fit, not a confirmed value.

assay: Primary qHTS for delayed death inhibitors of the malarial parasite plastid, 96 hour incubation; conditions: P. falciparum luciferase reporter growth; series mostly up to 28.7 µM
Procedure, shortened: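 Delayed-death screen, second-generation endpoint: infected erythrocytes, 2% hematocrit, 0.05% parasitemia final; 96 hours at 37 C, 5% CO2; luciferase detection reagent; luminescence decrease equals reduced growth.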
Potency means the concentration at half of the fitted maximal effect.

| Structure (SMILES) | Potency |
| --- | --- |
| Cc1ccc(N(CC(=O)NCC2CCCO2)C(=O)CCC(=O)Nc2ccccn2)cc1C (stereo not drawn) | inconclusive: 1.47 µM [inhibitor, full curve, poor fit] |
| O=C(NCCN1CCOCC1)c1sc2ccccc2c1Cl | inconclusive: 18.5 µM [inhibitor, single point] |
| Cc1ccc(S(=O)(=O)Nc2cc3c(cc2N2CCOCC2)n(C)c(=O)c(=O)n3C)cc1 | inactive |
| O=C(c1cc(C2CC2)nc2ccccc12)N1N=C(C(F)F)CC1(O)C(F)F (stereo not drawn) | inconclusive: 11.7 µM [inhibitor, single point] |
| Nc1nccnc1C(=O)OCC(=O)NCCc1ccc(S(N)(=O)=O)cc1 | inactive |
| COc1ccc2nc3oc(C(=O)N4CCN(c5cccc(Cl)c5)CC4)cc3cc2c1 | inactive |
| CC(C)N(C(=O)CSc1nc2ccccc2n1-c1ccccc1)C(C)C | inconclusive: 10.4 µM [inhibitor, single point] |
| CCCS(=O)(=O)N1CCCC(C(=O)NC2CCCC(C)C2C)C1 (stereo not drawn) | inconclusive: 18.5 µM [inhibitor, partial curve, poor fit] |
| C/C(CC(=O)Nc1ccccn1)=N\NC(=O)C(=O)Nc1cccc(C)c1 | inconclusive: 14.7 µM [inhibitor, partial curve, poor fit] |
| Cc1ccc(C(=O)CNc2ccc(Cl)cc2)cc1 | inconclusive: 20.8 µM [inhibitor, single point] |
| CCC(C)C1NC(=O)C(Cc2ccc(O)cc2)NC(=O)C(N)CSSCC(C(=O)N2CCCC2C(=O)NC(CC(C)C)C(=O)NCC(N)=O)NC(=O)C(CC(N)=O)NC(=O)C(CCC(N)=O)NC1=O (stereo not drawn) | inconclusive: 1.9 µM [inhibitor, partial curve, poor fit] |
| CN(Cc1cccc(Cl)c1)C(=O)C1CSC2(C)CCC(=O)N12 (stereo not drawn) | inactive |
| COc1ccc(CCNC(=O)CCNC(=O)c2ccco2)cc1 | inactive |
| COc1ccc(CCNS(=O)(=O)c2csc(C(N)=O)c2)cc1OC | inactive |
| CSCCC(C(=O)NCc1cccs1)N1C(=O)c2ccccc2C1=O (stereo not drawn) | inactive |
| CC(C)(C)NC(=O)C(c1cccnc1)N(C(=O)c1csnn1)c1ccccc1 (stereo not drawn) | inconclusive: 0.0041 µM [inhibitor, full curve, poor fit] |
| CC1CCN(C(=O)c2ccc(S(=O)(=O)Cc3ccccc3F)c([N+](=O)[O-])c2)CC1 | inconclusive: 18.5 µM [inhibitor, single point] |
| Cc1cc(C(C)(C)C)cc(C)c1Cn1c2[n+](c3ccc(C(F)(F)F)cc31)CCCCC2 | inconclusive: 16.5 µM [inhibitor, single point] |
| CCSc1ccc2cc(OC)ccc2[n+]1CC | inconclusive: 10.4 µM [inhibitor, partial curve, poor fit] |
| CCCCCCC1CCC(C(=O)NC(CCSC)C(=O)NC(C(=O)OC)C(C)C)CC1 (stereo not drawn) | inconclusive: 7.38 µM [inhibitor, partial curve, poor fit] |
| Cc1ccc(CN2CCN(Cc3cnn(-c4ccc(Cl)cc4)c3)CC2CCO)o1 (stereo not drawn) | inconclusive: 11.7 µM [inhibitor, partial curve, poor fit] |
| CCOC(=O)c1cccc(NC(=O)Nc2ccc(OCC)cc2)c1 | inconclusive: 5.22 µM [inhibitor, partial curve, poor fit] |
| Cc1ccc(C)c(NC(=O)/C(C#N)=C/c2ccc(Sc3nncn3C)c([N+](=O)[O-])c2)c1 | inconclusive: 0.233 µM [inhibitor, full curve] |

| Structure (SMILES) | Potency |
| --- | --- |
| Cc1cc(OCC(=O)Nc2ccccn2)c2c(C)cc(=O)oc2c1 | inactive |
| Cc1cc(Cl)ccc1NC(=O)CSc1nnc(-c2ccncc2)n1Cc1ccco1 | inconclusive: 4.15 µM [inhibitor, single point] |
| Cc1c(C(c2ccccc2O)c2c(C)n(C)n(-c3ccccc3)c2=O)c(=O)n(-c2ccccc2)n1C | inactive |
| O=C(c1ccccc1)C(O)C(c1ccccc1)N1CCOCC1 (stereo not drawn) | inactive |
| C/C(=N\NC(=O)c1cc(C2CC2)nc2ccccc12)c1ccc(C)s1 | inconclusive: 18.5 µM [inhibitor, single point] |
| Fc1cccc2sc(N3CCOCC3)nc12 | inconclusive: 16.5 µM [inhibitor, single point] |
| O=S1(=O)CC=C(CSc2nc3ccccc3[nH]2)C1 | inconclusive: 3.7 µM [inhibitor, partial curve, poor fit] |
| C/C(N)=C(/C#N)C(=O)COC(=O)CNC(=O)c1ccc(Cl)cc1Cl | inactive |
| COc1ccc(CCNC(=O)CCS(=O)(=O)c2ccc(Br)cc2)cc1OC | inactive |
| COc1ccc(C(=O)NCCSc2ccccn2)cc1 | inconclusive: 0.0738 µM [inhibitor, full curve, poor fit] |
| COc1ccc(NC(=O)Cn2nnc(C(=O)NCc3cccs3)c2N)c(OC)c1 | inconclusive: 18.5 µM [inhibitor, single point] |
| CN(C)C(CNC(=O)c1ccc(NC(=O)c2cccs2)cc1)c1ccccc1 (stereo not drawn) | inconclusive: 13.1 µM [inhibitor, single point] |
| Cc1ccccc1NC(=O)C1CCN(C(=O)N2CCOc3ccccc32)CC1 | inactive |
| CCOc1cc(N2CCOCC2)c(OCC)cc1NC(=O)COC(=O)C1CCCN1S(=O)(=O)c1ccccc1F (stereo not drawn) | inconclusive: 3.7 µM [inhibitor, partial curve, poor fit] |
| O=C(CCc1nnc2ccc(NCc3ccccc3Cl)nn12)NCC1CCN(C2CCCC2)C1 (stereo not drawn) | active: 5.22 µM |
| COc1ccc(OC)c(-c2cc(C(=O)N3CCc4ccccc4C3)no2)c1 | active: 9.28 µM |
| O=C(/C(=C/O)N=Nc1ccccc1)c1ccncc1 | inconclusive: 18.5 µM [inhibitor, partial curve, poor fit] |
| CCSc1nnc2c(n1)OC(C)(C)Nc1ccccc1-2 | inactive |
| Cc1ccc(-c2c[n+]3c(n2-c2ccccc2)SCC3)cc1 | inconclusive: 0.131 µM [inhibitor, full curve, poor fit] |
| CCOc1cc(CNc2ccc(O)cc2)cc(Br)c1OCc1ccccc1F | inactive |
| N#Cc1ccccc1NC(=O)COc1c(Br)cc(Br)c2cccnc12 | inconclusive: 18.5 µM [inhibitor, single point] |
| CC(=O)c1c(C)[nH]c(C(=O)CN2C(=O)NC(C)(CCC(C)C)C2=O)c1C (stereo not drawn) | inconclusive: 20.8 µM [inhibitor, partial curve, poor fit] |
| COC(=O)c1sccc1NC(=O)c1cc(-c2cc(C)ccc2C)nc2ccccc12 | inconclusive: 8.28 µM [inhibitor, single point] |

| Structure (SMILES) | Potency |
| --- | --- |
| COc1cc(C(=O)Nc2ccc3c(c2)ncn3C)cc(OC)c1OC | inactive |
| Cn1c(SCC(=O)Nc2ccc3nc(SCC(=O)N4CCCC4)sc3c2)nnc1-c1ccccc1 | active: 3.29 µM |
| CCOc1ccc(C(=O)Nc2ccccc2OC(F)F)cc1 | inconclusive: 14.7 µM [inhibitor, single point] |
| Cn1cnc2c(N/N=C/c3cccs3)ncnc21 | inactive |
| CCOC(=O)c1nnn(-c2nc(OC)nc(N3CCCCC3)n2)c1-c1ccccc1 | inconclusive: 9.28 µM [inhibitor, single point] |
| Cc1ccc(N2C(=O)c3ccc(C(=O)N4CCOCC4)cc3C2=O)cc1C | inactive |
| CC1CCCN(CCCNC(=O)c2ccc(N3CCCC3=O)cc2)C1 (stereo not drawn) | inconclusive: 18.5 µM [inhibitor, single point] |
| COc1ccc(-c2nnc(NC(=O)c3cccs3)s2)c(OC)c1 | inactive |
| COP(=O)(OC)C(O)C(Cl)(Cl)Cl (stereo not drawn) | inconclusive: 10.7 µM [inhibitor, partial curve] and inconclusive: 5.22 µM [inhibitor, partial curve, poor fit] |
| O=C(c1ccc2c3c(cccc13)C(=O)N(O)C2=O)N1CCCCC1 | inconclusive: 1.31 µM [inhibitor, partial curve] |
| Cc1cnc(NC(=O)C(C)N2C(=O)C3CC=CCC3C2=O)s1 (stereo not drawn) | inconclusive: 0.0037 µM [inhibitor, full curve, poor fit] |
| O=C(COc1ccc(Cl)cc1)Nc1nc(-c2ccncc2)cs1 | inconclusive: 14.7 µM [inhibitor, partial curve, poor fit] |
| CCOC(=O)N1CCN(C(=O)CN(C)S(=O)(=O)c2ccc(OCC)cc2)CC1 | inactive |
| COc1cccc(CNc2ccc(S(=O)(=O)N3CCN(C)CC3)cn2)c1 | inconclusive: 18.5 µM [inhibitor, single point] |
| CC1CC(=O)N(c2ccc(C(C)C)cc2)C(=O)C1 | inactive |
| CN(C)S(=O)(=O)N1CCC(Oc2ccc(C(=O)NC3Cc4ccccc4C3)cc2)CC1 | inconclusive: 11.7 µM [inhibitor, single point] |
| O=C(COC(=O)c1cccc([N+](=O)[O-])c1)NCc1cccs1 | inactive |
| C=C(C)COc1ccc(-c2nc(N)ncc2-c2ccc(Br)cc2)c(O)c1 | inconclusive: 9.28 µM [inhibitor, partial curve] |
| COCCCNC(=O)CCc1c(C)nc2c(c(C)nn2-c2ccccc2)c1C | inconclusive: 3.7 µM [inhibitor, partial curve, poor fit] |
| CC(C)(C)c1cc(C(F)(F)F)n2ncc(-c3ccccc3)c2n1 | inconclusive: 13.1 µM [inhibitor, single point] |
| COCCNc1nc2c(c(=O)n(C)c(=O)n2C)n1Cc1cccc(C)c1 | inactive |
| O=S(=O)(c1cccc(F)c1)N1CCN(Cc2cc3c(cc2Br)OCCO3)CC1 | inconclusive: 10.4 µM [inhibitor, single point] |
